In all, about 360,000 compounds went through this assay and about 1,700 (0.47%) were called active. Inconclusive means that the source gave no clear call. Such entries were picked first, then a sample of the others. Calls follow the shape of the dose curve; as a rule, active = well fitted inhibition curve with a large enough effect; inconclusive = small, poorly fitted or top-dose-only effect; inactive = no such curve, though single readings can be large or run the other way. Potencies of inconclusive entries are doubtful fits and often do not repeat.
The compounds below were run against Bifunctional 3'-5' exonuclease/ATP-dependent helicase WRN (Homo sapiens) (UniProt Q14191) (assay: qHTS for Inhibitors of WRN Helicase). Settings: WRN helicase unwinding, fluorescent forked duplex, kinetic; activity change, negative = inhibition: at 114 µM (top of the series) unless noted.
Summary of the method: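 Kinetic red-fluorescence monitoring (525/598 nm) tracks WRN helicase activity after 100 nM fluorophore-quencher forked duplex and 2 mM ATP are added to 20 nM enzyme pretreated 15 min at room temperature with compound.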
% is scaled to controls: 0 for no effect and ±100 for the full control effect; potency is read from the fitted curve at half-maximal effect.
Also: nearly all actives have a fitted effect of over 55% in size.

The chains behind the UniProt entries cited, without tags or fusion partners.
UniProt Q14191, whole entry, looked up: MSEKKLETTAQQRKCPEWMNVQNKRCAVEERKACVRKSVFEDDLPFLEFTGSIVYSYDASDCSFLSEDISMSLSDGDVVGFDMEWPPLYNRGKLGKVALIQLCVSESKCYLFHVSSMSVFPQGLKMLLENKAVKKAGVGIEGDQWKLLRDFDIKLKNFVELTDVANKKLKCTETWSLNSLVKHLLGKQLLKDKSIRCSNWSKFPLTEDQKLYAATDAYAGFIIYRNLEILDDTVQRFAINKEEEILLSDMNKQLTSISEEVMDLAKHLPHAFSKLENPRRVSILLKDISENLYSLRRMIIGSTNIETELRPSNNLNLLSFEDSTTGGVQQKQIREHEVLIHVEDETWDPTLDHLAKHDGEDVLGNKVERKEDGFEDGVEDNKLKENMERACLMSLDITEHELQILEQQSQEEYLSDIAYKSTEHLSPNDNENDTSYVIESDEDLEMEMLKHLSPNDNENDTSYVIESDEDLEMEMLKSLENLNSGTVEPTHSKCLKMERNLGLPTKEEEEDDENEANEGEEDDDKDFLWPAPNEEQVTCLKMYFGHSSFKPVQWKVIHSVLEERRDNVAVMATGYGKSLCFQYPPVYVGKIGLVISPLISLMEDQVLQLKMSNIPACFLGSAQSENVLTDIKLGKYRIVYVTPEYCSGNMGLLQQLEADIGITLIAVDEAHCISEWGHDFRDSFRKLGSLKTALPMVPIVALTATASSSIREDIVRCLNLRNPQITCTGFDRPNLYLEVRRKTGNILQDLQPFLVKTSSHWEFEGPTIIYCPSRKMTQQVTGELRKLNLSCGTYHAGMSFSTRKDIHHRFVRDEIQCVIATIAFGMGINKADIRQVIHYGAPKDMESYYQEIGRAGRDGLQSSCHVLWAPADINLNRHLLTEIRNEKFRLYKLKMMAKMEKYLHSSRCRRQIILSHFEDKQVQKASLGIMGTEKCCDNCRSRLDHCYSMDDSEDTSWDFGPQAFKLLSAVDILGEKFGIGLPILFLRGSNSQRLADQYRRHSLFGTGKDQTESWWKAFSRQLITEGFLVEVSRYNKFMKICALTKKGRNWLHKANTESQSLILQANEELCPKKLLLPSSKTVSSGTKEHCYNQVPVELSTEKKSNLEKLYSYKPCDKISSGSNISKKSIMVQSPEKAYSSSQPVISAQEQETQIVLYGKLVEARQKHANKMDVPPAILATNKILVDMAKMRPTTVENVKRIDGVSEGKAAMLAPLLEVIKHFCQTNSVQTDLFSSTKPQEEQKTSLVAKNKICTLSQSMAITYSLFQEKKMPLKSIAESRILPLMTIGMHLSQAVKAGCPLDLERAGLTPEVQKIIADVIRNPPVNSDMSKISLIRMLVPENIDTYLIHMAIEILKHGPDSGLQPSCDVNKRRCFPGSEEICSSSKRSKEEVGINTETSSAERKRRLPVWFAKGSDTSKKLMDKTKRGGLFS

Question: For `CN1CCc2nc3sc(C(=O)C45CC6CC(CC(C6)C4)C5)c(N)c3cc2C1`, which Potency is on record?
Answer: Its Potency is inconclusive: 63.1 µM [inhibitor, partial curve, poor fit].

Question: `CC(=O)c1sc2nc(CSc3nnnn3-c3ccccc3)[nH]c(=O)c2c1C` was tested. Which Potency did it give?
Answer: Its Potency is active: 28.2 µM.

Question: How did the Potency turn out when `O=C(C#Cc1ccccc1)c1ccc([N+](=O)[O-])cc1` was run?
Answer: Its Potency is active: 31.6 µM.

Question: For `Cc1csc(N2CCN(c3cc4c(cc3Cl)nc(-c3ccncc3)n4CCCN3CCCC3)CC2)n1`, which Potency is on record?
Answer: Its Potency is “inactive”.

Question: How did the Potency turn out when `CCC1CCCCN1C(=O)CCc1nnc(C2CCCCC2)o1` (configuration not stated) was run?
Answer: The Potency was “inactive”.

Question: How did the Potency turn out when `Clc1ccc2c(SCC3CO3)c3ccccc3nc2c1` (configuration not stated) was run?
Answer: Its Potency is inconclusive: 20 µM [inhibitor, partial curve].

Question: How did the Potency turn out when `COc1cc(CN2CCN(Cc3cccc(OC)c3OC)CC2)cc(OC)c1` was run?
Answer: The Potency was inconclusive: 28.2 µM [inhibitor, full curve].

Question: With `Cc1csc(SCC(=O)Nc2sccc2C#N)n1` as the compound, how does the Potency read?
Answer: Its Potency is inconclusive: 79.4 µM [inhibitor, partial curve].

Question: With `Cc1cnc(C(=O)NCC(=O)Nc2ccccc2Br)cn1` as the compound, how does the activity change, negative = inhibition read?
Answer: The activity change, negative = inhibition was inactive: -4.13% [at 11.6 µM].

Question: With `Cc1ccc(Nc2ncnc3ccccc23)cc1` as the compound, how does the Potency read?
Answer: The Potency was inconclusive: 22.4 µM [inhibitor, single point].

Question: `CC1=C([N+](=O)[O-])C(c2ccc3c(c2)OCO3)N(C)C(=O)N1C` (configuration not stated) was tested. Which Potency did it give?
Answer: The Potency was inconclusive: 79.4 µM [inhibitor, partial curve].

Question: How did the Potency turn out when `CC(C)N=c1scc(-c2cccs2)n1/N=C/c1ccc(O)c(O)c1O` was run?
Answer: Its Potency is inconclusive: 56.2 µM [inhibitor, partial curve].

Question: `O=C(NCc1ccc2c(c1)OCO2)c1ccc(C2SCC(=O)N2Cc2ccco2)cc1` (configuration not stated) was tested. Which Potency did it give?
Answer: The Potency was inconclusive: 35.5 µM [inhibitor, partial curve].

Question: Which Potency does the source give for `O=C(Nc1cccnc1)Nc1cccc([N+](=O)[O-])c1` here?
Answer: The Potency was inconclusive: 7.94 µM [inhibitor, full curve, poor fit].

Question: `COc1cccc(NC(=O)Nc2ccc(Cc3ccncc3)cc2)c1` was tested. Which Potency did it give?
Answer: Its Potency is inconclusive: 35.5 µM [inhibitor, single point].

Question: Which Potency does the source give for `C=CCc1cc(Cl)ccc1OCCNCCOC` here?
Answer: The Potency was inconclusive: 22.4 µM [inhibitor, single point].

Question: How did the Potency turn out when `O=C1C(Cl)=C(N2CCC(C(=O)O)CC2)C(=O)c2ccccc21` was run?
Answer: Its Potency is “inactive”.

Question: Which Potency does the source give for `CCCCCn1c(N)c(-c2nc3ccccc3o2)c2c([N+](=O)[O-])nn(CC)c(=O)c21` here?
Answer: The Potency was inconclusive: 89.1 µM [inhibitor, single point].

Question: How did the Potency turn out when `Cc1ccc(NC(=O)c2c(NC(=O)CCC(=O)O)sc3c2CCCCC3)cc1` was run?
Answer: Its Potency is inconclusive: 70.8 µM [inhibitor, single point].

Question: For `COc1ccc(-c2nn(C)c3sc(C(=O)NCCN(C)C)cc23)cc1OC`, which Potency is on record?
Answer: The Potency was inconclusive: 50.1 µM [inhibitor, partial curve].

Question: For `N#CCN1C(=S)N=C(Nc2cccc(Cl)c2)C12CCCCC2`, which activity change, negative = inhibition is on record?
Answer: Its activity change, negative = inhibition is inconclusive: -44.2% [inhibitor] [at 57.1 µM].

Question: How did the Potency turn out when `CCCCCC(=O)Cc1cc(O)cc2c1C(=O)Oc1cc(O)c(C(=O)O)c(CCCCC)c1O2` was run?
Answer: Its Potency is active: 44.7 µM.

Question: `Cc1ccc(-c2cc(C(=O)NCCCn3ccnc3)c3cc(Br)ccc3n2)o1` was tested. Which activity change, negative = inhibition did it give?
Answer: Its activity change, negative = inhibition is inconclusive: -38.6% [inhibitor] [at 57.1 µM].

Question: `Cc1cc(C)nc(SCC(=O)NNS(=O)(=O)c2ccc(C#N)cc2)n1` was tested. Which Potency did it give?
Answer: Its Potency is inconclusive: 79.4 µM [inhibitor, single point].

Question: `S=c1[nH]nc(CN2CCCCC2)n1Cc1ccccc1` was tested. Which Potency did it give?
Answer: The Potency was inconclusive: 100 µM [inhibitor, single point].

Question: `N#Cc1c(-c2cccs2)nc(SCc2ccc(Cl)cc2)[nH]c1=O` was tested. Which Potency did it give?
Answer: Its Potency is inconclusive: 28.2 µM [inhibitor, single point].

Question: With `CN(CCc1ccccn1)C(=O)Nc1cccc(Cl)c1` as the compound, how does the Potency read?
Answer: The Potency was inconclusive: 39.8 µM [inhibitor, single point].

Question: `CCc1nc(SCC(=O)Nc2nccs2)c2oc3ccccc3c2n1` was tested. Which Potency did it give?
Answer: Its Potency is inconclusive: 79.4 µM [inhibitor, partial curve].

Question: With `CCn1c(SCC(=O)NC(=O)NCc2ccco2)nc2sc(C)c(C)c2c1=O` as the compound, how does the Potency read?
Answer: The Potency was inconclusive: 79.4 µM [inhibitor, partial curve].

Question: For `Cc1cccc2sc(NC(=O)c3ccc(NS(=O)(=O)c4cccs4)cc3)nc12`, which Potency is on record?
Answer: The Potency was inconclusive: 56.2 µM [inhibitor, partial curve].

Question: For `OC(c1ccc(F)c(F)c1)c1ncc(-c2ccccc2F)[nH]1` (configuration not stated), which Potency is on record?
Answer: Its Potency is “inactive”.

Question: How did the Potency turn out when `COc1ccc(/C=N/NC(=O)c2cc(O)c(O)c(O)c2)cc1Cn1cc([N+](=O)[O-])cn1` was run?
Answer: Its Potency is active: 8.91 µM.

Question: For `CCOc1ccccc1NC(=O)Cc1cccs1`, which Potency is on record?
Answer: The Potency was inconclusive: 56.2 µM [inhibitor, partial curve].

Question: How did the Potency turn out when `COc1ccccc1NC(=O)CC1SC(=N)N(c2ccccc2)C1=O` (configuration not stated) was run?
Answer: The Potency was “inactive”.

Question: With `CCOC(=O)Cc1nnc(NC(=O)CSc2nnc3c(n2)[nH]c2ccccc23)s1` as the compound, how does the Potency read?
Answer: Its Potency is inconclusive: 22.4 µM [inhibitor, single point].

Question: For `Cc1cc(C(=O)Nc2c(F)c(F)c(F)c(F)c2F)n(-c2ccccc2)n1`, which Potency is on record?
Answer: The Potency was inconclusive: 22.4 µM [inhibitor, single point].

Question: With `COc1cc(-c2cnc3c(NC=O)cc(-c4ccsc4)cn23)cc(OC)c1OC` as the compound, how does the Potency read?
Answer: The Potency was inconclusive: 28.2 µM [inhibitor, single point].

Question: Which Potency does the source give for `Cc1ccc(CSCC(=O)N2CCOCC2)cc1` here?
Answer: The Potency was inconclusive: 89.1 µM [inhibitor, single point].

Question: For `CCN(CC)S(=O)(=O)c1ccc(N2CCOCC2)c(NC(=O)C2=COCCO2)c1`, which Potency is on record?
Answer: The Potency was inconclusive: 44.7 µM [inhibitor, partial curve].

Question: For `COc1ccc(C(=O)N2C(=S)NC(=O)/C2=C\c2ccc(C)cc2)cc1`, which Potency is on record?
Answer: The Potency was active: 50.1 µM.

Question: Which Potency does the source give for `Cc1cc(C(=O)NCCc2ccc(S(N)(=O)=O)cc2)c(C)o1` here?
Answer: Its Potency is inconclusive: 70.8 µM [inhibitor, single point].

Question: With `COc1cccc(NC(=O)CSc2ccc(-c3sc(C)nc3C)nn2)c1` as the compound, how does the Potency read?
Answer: Its Potency is inconclusive: 35.5 µM [inhibitor, partial curve].

Question: For `Oc1ccc(/C=N/NC(=S)Nc2cccnc2)c(O)c1O`, which Potency is on record?
Answer: Its Potency is active: 10 µM.

Question: With `N#Cc1c(NC(=O)CSc2ncnc3sccc23)oc(-c2ccco2)c1-c1ccco1` as the compound, how does the Potency read?
Answer: Its Potency is inconclusive: 2.99 µM [inhibitor, partial curve].

Question: How did the Potency turn out when `O=C(Oc1ccc2c(c1)OCO2)c1cc2c(s1)CCC2` was run?
Answer: Its Potency is inconclusive: 56.2 µM [inhibitor, partial curve, poor fit].

Question: `Cc1ccc(-c2nc(N3CCOCC3)sc2C(=O)N2CCOCC2)cc1` was tested. Which Potency did it give?
Answer: The Potency was inconclusive: 28.2 µM [inhibitor, single point].

Question: For `COc1ccc(-c2ccc3c(c2)S(=O)(=O)c2cccc(C(=O)NCc4cc(C)oc4C(F)(F)F)c2C3=O)cc1OC`, which activity change, negative = inhibition is on record?
Answer: Its activity change, negative = inhibition is inactive: -12.1% [at 11.6 µM].

Question: Which Potency does the source give for `O=C(COC(=O)c1ccc(S(=O)(=O)NCc2ccco2)cc1)NCC1CCCCC1` here?
Answer: Its Potency is inconclusive: 44.7 µM [inhibitor, partial curve, poor fit].

Question: With `O=C(CCN1C(=O)/C(=C\c2ccco2)SC1=S)Nc1ccc(C(=O)O)c(O)c1` as the compound, how does the Potency read?
Answer: Its Potency is active: 50.1 µM.

Question: How did the Potency turn out when `Cc1ccc(OCC(=O)N(C)CC(=O)Nc2ccc(F)c(F)c2F)cc1` was run?
Answer: Its Potency is inconclusive: 89.1 µM [inhibitor, single point].

Question: `Cc1cccc(-c2noc(-c3ccccc3C(=O)NCc3ccco3)n2)c1` was tested. Which Potency did it give?
Answer: The Potency was inconclusive: 10 µM [inhibitor, full curve, poor fit].

Question: Which Potency does the source give for `Cc1ccc2[nH]c3c(NCc4ccco4)ncnc3c2c1` here?
Answer: Its Potency is inconclusive: 79.4 µM [inhibitor, partial curve].

Question: Which Potency does the source give for `CCN(CC)CCn1c(NCc2cc(OC)ccc2OC)nc2ccccc21` here?
Answer: Its Potency is “inactive”.

Question: `O=[N+]([O-])c1ccc(O)c(CSc2nnnn2-c2ccccc2)c1` was tested. Which Potency did it give?
Answer: The Potency was inconclusive: 79.4 µM [inhibitor, single point].

Question: `Cc1ccc([C@@H]2C3COCC=C3C(C#N)=C(N)C2(C#N)C#N)o1` (some centres not stated) was tested. Which Potency did it give?
Answer: The Potency was inconclusive: 50.1 µM [inhibitor, partial curve].

Question: How did the Potency turn out when `O=C1NC2=C(CCc3ccccc32)C(c2ccc(Br)cc2)N1` (configuration not stated) was run?
Answer: Its Potency is inconclusive: 56.2 µM [inhibitor, partial curve, poor fit].

Question: With `O=C(O)c1ccc(Cl)c(S(=O)(=O)N(Cc2ccccc2)c2ccccc2)c1` as the compound, how does the Potency read?
Answer: Its Potency is “inactive”.

Question: How did the Potency turn out when `O=C(CSc1ccc2nnc(-c3ccccn3)n2n1)Nc1ccc(F)cc1F` was run?
Answer: Its Potency is inconclusive: 56.2 µM [inhibitor, partial curve].

Question: Which Potency does the source give for `Cc1ccc(S(=O)(=O)N2CCC(C(=O)NCCN3CCCCCC3)CC2)cc1` here?
Answer: Its Potency is “inactive”.

Question: For `Cc1cc(/C=C2\SC(=S)NC2=O)c(C)n1-c1cccc(O)c1`, which Potency is on record?
Answer: Its Potency is inconclusive: 50.1 µM [inhibitor, partial curve].

Question: `O=C(N/N=C/C=C\c1ccco1)c1cccs1` was tested. Which activity change, negative = inhibition did it give?
Answer: The activity change, negative = inhibition was inactive: -5.36% [at 11.6 µM].

Question: With `COc1ccc(S(=O)(=O)N(CC(C)C)C2CCS(=O)(=O)C2)cc1OC` (configuration not stated) as the compound, how does the Potency read?
Answer: Its Potency is inconclusive: 89.1 µM [inhibitor, single point].

Question: `COCC1CCN(C(=O)c2cc(COc3ccc4c(c3)CCCC4)on2)C1` (configuration not stated) was tested. Which Potency did it give?
Answer: The Potency was inconclusive: 100 µM [inhibitor, single point].

Question: How did the Potency turn out when `O=C(O)COc1ccccc1/C=N/NC(=O)c1cc(-c2ccccc2)nc2ccccc12` was run?
Answer: The Potency was “inactive”.

Question: `CCC(C)[C@@H](NC(=O)OC(C)(C)C)c1nnc(S(=O)(=O)Cc2cccc(C)c2)o1` (some centres not stated) was tested. Which Potency did it give?
Answer: Its Potency is inconclusive: 56.2 µM [inhibitor, partial curve].

Question: How did the Potency turn out when `COc1cccc(/C=C2\SC(=S)N(C(C(=O)O)c3ccccc3)C2=O)c1OC` (configuration not stated) was run?
Answer: Its Potency is “inactive”.

Question: For `CC(=O)c1nc(N2C(=O)CC(Cc3ccccc3)C2=O)sc1C` (configuration not stated), which Potency is on record?
Answer: Its Potency is inconclusive: 50.1 µM [inhibitor, partial curve].

Reference: PubChem BioAssay AID651768 (National Center for Advancing Translational Sciences (NCATS), 2012)
